Experimental data published in PMC10679541.
These are yes or no findings as the source states them, for the method shown. In cells and extracts the contact can be indirect. Some results given as binding are weak or reduced against the parent protein; the word gives no strength. Sequences can lack the tags named with a protein. Blank lines part the entries; values can stand above or below the binder they belong to.

Key:
[1] = target: T1, STAG1 with a C-terminal NeonGreen-v5-FKBP tag (SA1^NG-FKBP) (mouse (endogenous in mESCs)) (UniProt Q9D3E6); test: co-IP; immunoprecipitation from chromatin with an N-terminal Stag1 antibody (Ab4455) in SA1^NG-FKBP mESCs treated with DMSO or dTAG, western blot for RAD21, SMC3 and NCL
T1 sequence: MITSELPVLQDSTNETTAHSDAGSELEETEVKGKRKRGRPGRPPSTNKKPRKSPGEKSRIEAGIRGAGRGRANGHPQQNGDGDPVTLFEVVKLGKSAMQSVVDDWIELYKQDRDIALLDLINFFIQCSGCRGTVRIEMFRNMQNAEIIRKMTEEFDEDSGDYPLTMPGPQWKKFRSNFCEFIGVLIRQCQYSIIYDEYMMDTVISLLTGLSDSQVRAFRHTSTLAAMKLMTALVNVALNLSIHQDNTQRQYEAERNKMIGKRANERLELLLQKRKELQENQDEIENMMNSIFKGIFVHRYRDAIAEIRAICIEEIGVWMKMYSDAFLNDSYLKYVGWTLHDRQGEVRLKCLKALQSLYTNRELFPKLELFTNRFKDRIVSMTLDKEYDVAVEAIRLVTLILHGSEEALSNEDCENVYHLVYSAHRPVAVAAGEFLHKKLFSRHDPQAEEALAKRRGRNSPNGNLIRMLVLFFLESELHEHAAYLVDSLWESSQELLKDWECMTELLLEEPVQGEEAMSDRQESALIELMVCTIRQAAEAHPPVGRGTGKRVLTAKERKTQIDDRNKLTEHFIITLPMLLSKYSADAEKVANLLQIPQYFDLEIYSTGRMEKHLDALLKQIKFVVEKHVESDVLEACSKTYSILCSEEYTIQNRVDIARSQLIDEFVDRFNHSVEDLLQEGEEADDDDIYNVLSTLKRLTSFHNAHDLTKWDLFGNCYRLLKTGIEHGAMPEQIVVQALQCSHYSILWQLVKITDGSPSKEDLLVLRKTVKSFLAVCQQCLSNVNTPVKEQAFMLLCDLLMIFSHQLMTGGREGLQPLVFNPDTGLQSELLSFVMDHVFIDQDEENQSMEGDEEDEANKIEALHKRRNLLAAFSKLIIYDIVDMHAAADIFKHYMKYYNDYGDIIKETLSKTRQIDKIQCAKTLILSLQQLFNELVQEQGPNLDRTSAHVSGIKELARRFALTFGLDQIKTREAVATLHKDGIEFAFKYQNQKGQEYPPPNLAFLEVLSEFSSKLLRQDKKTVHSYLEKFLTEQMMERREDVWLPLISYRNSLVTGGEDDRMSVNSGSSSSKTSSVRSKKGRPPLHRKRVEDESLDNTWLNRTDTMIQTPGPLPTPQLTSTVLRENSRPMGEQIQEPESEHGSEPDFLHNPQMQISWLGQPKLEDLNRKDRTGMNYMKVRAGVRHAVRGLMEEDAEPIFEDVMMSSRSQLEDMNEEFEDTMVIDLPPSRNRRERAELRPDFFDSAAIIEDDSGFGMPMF

[2] = target: T2, STAG1 with a C-terminal NeonGreen-v5-FKBP tag (SA1^NG-FKBP) (mouse (endogenous in mESCs)), Q9D3E6; test: as above; conditions: remark: other sources report otherwise
T2 chain: T1 sequence

binding [1]: binds
B1: RAD21 (protein, UniProt Q61550 1-635)
chain: MFYAHFVLSKRGPLAKIWLAAHWDKKLTKAHVFECNLESSVESIISPKVKMALRTSGHLLLGVVRIYHRKAKYLLADCNEAFIKIKMAFRPGVVDLPEENREAAYNAITLPEEFHDFDQPLPDLDDIDVAQQFSLNQSRVEEITMREEVGNISILQENDFGDFGMDDREIMREGSAFEDDDMLVSTSASNLLLEPEQSTSNLNEKMNHLEYEDQYKDDNFGEGNDGGILDDKLISNNDGGIFDDPPALSEAGVMLPEQPAHDDMDEDDNGSLGGPDSPDSVDPVEPMPTMTDQTTLVPNEEEAFALEPIDITVKETKAKRKRKLIVDSVKELDSKTIRAQLSDYSDIVTTLDLAPPTKKLMMWKETGGVEKLFFLPAQPLWNNRLLKLFTRCLTPLVPEDLRKRRKGGEADNLDEFLKEFENPEVPREEQQPQQQQPQPQRDVIDEPIIEEPSRLQDSVMEASRTTIEESAMPPPPPQGVKRKAGQIDPEPSIPPQQVEQMEIPPVELPPEEPPNICQLIPELELLPEKEKEKEKEKEEEEEEEDEDASGGDQDQEERRWNKRTQQMLHGLQRALAKTGAESISLLELCRNTNRKQAAAKFYSFLVLKKQQAIELTQEEPYSDIIATPGPRFHII

binding [2]: binds
B2: SMC3, Q9CW03 1-1217 (protein)
chain: MYIKQVIIQGFRSYRDQTIVDPFSSKHNVIVGRNGSGKSNFFYAIQFVLSDEFSHLRPEQRLALLHEGTGPRVISAFVEIIFDNSDNRLPIDKEEVSLRRVIGAKKDQYFLDKKMVTKNDVMNLLESAGFSRSNPYYIVKQGKINQMATAPDSQRLKLLREVAGTRVYDERKEESISLMKETEGKREKINELLKYIEERLHTLEEEKEELAQYQKWDKMRRALEYTIYNQELNETRAKLDELSAKRETSGEKSRQLRDAQQDARDKMEDIERQVRELKTKISAMKEEKEQLSAERQEQIKQRTKLELKAKDLQDELAGNSEQRKRLLKERQKLLEKIEEKQKELAETEPKFNSVKEKEERGIARLAQATQERTDLYAKQGRGSQFTSKEERDKWIKKELKSLDQAINDKKRQIAAIHKDLEDTEANKEKNLEQYNKLDQDLNEVKARVEELDRKYYEVKNKKDELQSERNYLWREENAEQQALAAKREDLEKKQQLLRAATGKAILNGIDSINKVLEHFRRKGINQHVQNGYHGIVMNNFECEPAFYTCVEVTAGNRLFYHIVDSDEVSTKILMEFNKMNLPGEVTFLPLNKLDVRDTAYPETNDAIPMISKLRYNPRFDKAFKHVFGKTLICRSMEVSTQLARAFTMDCITLEGDQVSHRGALTGGYYDTRKSRLELQKDVRKAEEELGELEAKLNENLRRNIERINNEIDQLMNQMQQIETQQRKFKASRDSILSEMKMLKEKRQQSEKTFMPKQRSLQSLEASLHAMESTRESLKAELGTDLLSQLSLEDQKRVDALNDEIRQLQQENRQLLNERIKLEGIITRVETYLNENLRKRLDQVEQELNELRETEGGTVLTATTSELEAINKRVKDTMARSEDLDNSIDKTEAGIKELQKSMERWKNMEKEHMDAINHDTKELEKMTNRQGMLLKKKEECMKKIRELGSLPQEAFEKYQTLSLKQLFRKLEQCNTELKKYSHVNKKALDQFVNFSEQKEKLIKRQEELDRGYKSIMELMNVLELRKYEAIQLTFKQVSKNFSEVFQKLVPGGKATLVMKKGDVEGSQSQDEGEGSGESERGSGSQSSVPSVDQFTGVGIRVSFTGKQGEMREMQQLSGGQKSLVALALIFAIQKCDPAPFYLFDEIDQALDAQHRKAVSDMIMELAVHAQFITTTFRPELLESADKFYGVKFRNKVSHIDVITAEMAKDFVEDDTTHG
